# Data from PMC9590400.
# Results are given in words; binding and its absence hold for the method and conditions named. In cells and extracts the contact can be indirect. These calls come from enrichment with a bait or labelling near it, and not all partners need be listed.
# T1: Coiled-coil alpha-helical rod protein 1 (CCHCR1), bait of the BioID experiment (human) (UniProt Q8TD31)
# T1 sequence: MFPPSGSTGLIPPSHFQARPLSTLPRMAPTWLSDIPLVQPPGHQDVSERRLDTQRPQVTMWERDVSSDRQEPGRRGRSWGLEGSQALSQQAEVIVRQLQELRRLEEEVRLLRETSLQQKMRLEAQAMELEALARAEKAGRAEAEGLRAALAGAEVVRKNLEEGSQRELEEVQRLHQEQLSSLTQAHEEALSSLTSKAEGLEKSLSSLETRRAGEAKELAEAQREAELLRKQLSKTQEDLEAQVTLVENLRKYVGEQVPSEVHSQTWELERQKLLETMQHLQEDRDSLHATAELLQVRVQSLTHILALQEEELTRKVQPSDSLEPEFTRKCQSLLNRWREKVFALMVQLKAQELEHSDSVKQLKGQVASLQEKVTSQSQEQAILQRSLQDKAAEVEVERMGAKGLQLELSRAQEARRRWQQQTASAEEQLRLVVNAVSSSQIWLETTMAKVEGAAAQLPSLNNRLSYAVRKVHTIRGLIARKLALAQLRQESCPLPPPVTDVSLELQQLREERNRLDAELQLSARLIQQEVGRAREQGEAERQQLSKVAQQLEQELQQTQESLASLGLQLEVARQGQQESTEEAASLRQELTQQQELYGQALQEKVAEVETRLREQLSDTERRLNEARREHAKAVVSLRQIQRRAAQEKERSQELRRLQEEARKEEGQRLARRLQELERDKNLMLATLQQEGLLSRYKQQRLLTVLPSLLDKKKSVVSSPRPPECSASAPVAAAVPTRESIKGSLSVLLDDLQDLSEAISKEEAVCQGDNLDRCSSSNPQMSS
# B1: Enhancer of mRNA-decapping protein 4, found by BioID (protein, UniProt Q6P2E9 1-1401)
# chain: MASCASIDIEDATQHLRDILKLDRPAGGPSAESPRPSSAYNGDLNGLLVPDPLCSGDSTSANKTGLRTMPPINLQEKQVICLSGDDSSTCIGILAKEVEIVASSDSSISSKARGSNKVKIQPVAKYDWEQKYYYGNLIAVSNSFLAYAIRAANNGSAMVRVISVSTSERTLLKGFTGSVADLAFAHLNSPQLACLDEAGNLFVWRLALVNGKIQEEILVHIRQPEGTPLNHFRRIIWCPFIPEESEDCCEESSPTVALLHEDRAEVWDLDMLRSSHSTWPVDVSQIKQGFIVVKGHSTCLSEGALSPDGTVLATASHDGYVKFWQIYIEGQDEPRCLHEWKPHDGRPLSCLLFCDNHKKQDPDVPFWRFLITGADQNRELKMWCTVSWTCLQTIRFSPDIFSSVSVPPSLKVCLDLSAEYLILSDVQRKVLYVMELLQNQEEGHACFSSISEFLLTHPVLSFGIQVVSRCRLRHTEVLPAEEENDSLGADGTHGAGAMESAAGVLIKLFCVHTKALQDVQIRFQPQLNPDVVAPLPTHTAHEDFTFGESRPELGSEGLGSAAHGSQPDLRRIVELPAPADFLSLSSETKPKLMTPDAFMTPSASLQQITASPSSSSSGSSSSSSSSSSSLTAVSAMSSTSAVDPSLTRPPEELTLSPKLQLDGSLTMSSSGSLQASPRGLLPGLLPAPADKLTPKGPGQVPTATSALSLELQEVEPLGLPQASPSRTRSPDVISSASTALSQDIPEIASEALSRGFGSSAPEGLEPDSMASAASALHLLSPRPRPGPELGPQLGLDGGPGDGDRHNTPSLLEAALTQEASTPDSQVWPTAPDITRETCSTLAESPRNGLQEKHKSLAFHRPPYHLLQQRDSQDASAEQSDHDDEVASLASASGGFGTKVPAPRLPAKDWKTKGSPRTSPKLKRKSKKDDGDAAMGSRLTEHQVAEPPEDWPALIWQQQRELAELRHSQEELLQRLCTQLEGLQSTVTGHVERALETRHEQEQRRLERALAEGQQRGGQLQEQLTQQLSQALSSAVAGRLERSIRDEIKKTVPPCVSRSLEPMAGQLSNSVATKLTAVEGSMKENISKLLKSKNLTDAIARAAADTLQGPMQAAYREAFQSVVLPAFEKSCQAMFQQINDSFRLGTQEYLQQLESHMKSRKAREQEAREPVLAQLRGLVSTLQSATEQMAATVAGSVRAEVQHQLHVAVGSLQESILAQVQRIVKGEVSVALKEQQAAVTSSIMQAMRSAAGTPVPSAHLDCQAQQAHILQLLQQGHLNQAFQQALTAADLNLVLYVCETVDPAQVFGQPPCPLSQPVLLSLIQQLASDLGTRTDLKLSYLEEAVMHLDHSDPITRDHMGSVMAQVRQKLFQFLQAEPHNSLGKAARRLSLMLHGLVTPSLP
# Molecular target: T1, Coiled-coil alpha-helical rod protein 1 (CCHCR1), bait of the BioID experiment (human)
# Assay: proximity labelling; proximity-dependent biotinylation (BioID) of CCHCR1 coupled with LC-MS/MS; cells and construct not told
binder,measurement,value
B1,binding,binds
